Assay results taken from publication PMC4032575.
Results are given in words; binding and its absence hold for the method and conditions named. Binding seen in cells or lysates may run through a third protein. Some results given as binding are weak or reduced against the parent protein; the word gives no strength.

Amino acid sequences for entries named in this document (tags omitted). A change or cut given only in a name is not applied to a line headed by its entry. Chains listed by the source or under a name are the forms on record and can include a tag or linker.
UniProt Q23985: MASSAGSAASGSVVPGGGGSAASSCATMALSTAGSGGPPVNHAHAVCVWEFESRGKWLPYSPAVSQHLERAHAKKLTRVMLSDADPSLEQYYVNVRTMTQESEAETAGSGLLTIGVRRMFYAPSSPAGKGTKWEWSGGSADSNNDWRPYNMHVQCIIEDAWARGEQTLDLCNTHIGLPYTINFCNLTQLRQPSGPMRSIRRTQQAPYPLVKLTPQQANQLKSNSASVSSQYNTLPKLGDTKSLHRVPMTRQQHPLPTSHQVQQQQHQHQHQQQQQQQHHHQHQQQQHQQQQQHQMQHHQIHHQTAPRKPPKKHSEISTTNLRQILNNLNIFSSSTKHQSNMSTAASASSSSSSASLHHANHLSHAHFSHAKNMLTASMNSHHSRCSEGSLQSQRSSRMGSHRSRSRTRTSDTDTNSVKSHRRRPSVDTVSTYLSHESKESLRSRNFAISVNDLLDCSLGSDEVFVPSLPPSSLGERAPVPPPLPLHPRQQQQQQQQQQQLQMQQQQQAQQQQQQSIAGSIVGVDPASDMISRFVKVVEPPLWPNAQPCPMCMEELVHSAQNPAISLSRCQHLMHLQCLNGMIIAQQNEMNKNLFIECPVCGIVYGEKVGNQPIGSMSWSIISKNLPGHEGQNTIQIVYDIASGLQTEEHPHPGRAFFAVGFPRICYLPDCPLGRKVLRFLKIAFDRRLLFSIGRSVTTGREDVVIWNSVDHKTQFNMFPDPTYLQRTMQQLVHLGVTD
Notch R2027A (N^R2027A) (P07207, form named): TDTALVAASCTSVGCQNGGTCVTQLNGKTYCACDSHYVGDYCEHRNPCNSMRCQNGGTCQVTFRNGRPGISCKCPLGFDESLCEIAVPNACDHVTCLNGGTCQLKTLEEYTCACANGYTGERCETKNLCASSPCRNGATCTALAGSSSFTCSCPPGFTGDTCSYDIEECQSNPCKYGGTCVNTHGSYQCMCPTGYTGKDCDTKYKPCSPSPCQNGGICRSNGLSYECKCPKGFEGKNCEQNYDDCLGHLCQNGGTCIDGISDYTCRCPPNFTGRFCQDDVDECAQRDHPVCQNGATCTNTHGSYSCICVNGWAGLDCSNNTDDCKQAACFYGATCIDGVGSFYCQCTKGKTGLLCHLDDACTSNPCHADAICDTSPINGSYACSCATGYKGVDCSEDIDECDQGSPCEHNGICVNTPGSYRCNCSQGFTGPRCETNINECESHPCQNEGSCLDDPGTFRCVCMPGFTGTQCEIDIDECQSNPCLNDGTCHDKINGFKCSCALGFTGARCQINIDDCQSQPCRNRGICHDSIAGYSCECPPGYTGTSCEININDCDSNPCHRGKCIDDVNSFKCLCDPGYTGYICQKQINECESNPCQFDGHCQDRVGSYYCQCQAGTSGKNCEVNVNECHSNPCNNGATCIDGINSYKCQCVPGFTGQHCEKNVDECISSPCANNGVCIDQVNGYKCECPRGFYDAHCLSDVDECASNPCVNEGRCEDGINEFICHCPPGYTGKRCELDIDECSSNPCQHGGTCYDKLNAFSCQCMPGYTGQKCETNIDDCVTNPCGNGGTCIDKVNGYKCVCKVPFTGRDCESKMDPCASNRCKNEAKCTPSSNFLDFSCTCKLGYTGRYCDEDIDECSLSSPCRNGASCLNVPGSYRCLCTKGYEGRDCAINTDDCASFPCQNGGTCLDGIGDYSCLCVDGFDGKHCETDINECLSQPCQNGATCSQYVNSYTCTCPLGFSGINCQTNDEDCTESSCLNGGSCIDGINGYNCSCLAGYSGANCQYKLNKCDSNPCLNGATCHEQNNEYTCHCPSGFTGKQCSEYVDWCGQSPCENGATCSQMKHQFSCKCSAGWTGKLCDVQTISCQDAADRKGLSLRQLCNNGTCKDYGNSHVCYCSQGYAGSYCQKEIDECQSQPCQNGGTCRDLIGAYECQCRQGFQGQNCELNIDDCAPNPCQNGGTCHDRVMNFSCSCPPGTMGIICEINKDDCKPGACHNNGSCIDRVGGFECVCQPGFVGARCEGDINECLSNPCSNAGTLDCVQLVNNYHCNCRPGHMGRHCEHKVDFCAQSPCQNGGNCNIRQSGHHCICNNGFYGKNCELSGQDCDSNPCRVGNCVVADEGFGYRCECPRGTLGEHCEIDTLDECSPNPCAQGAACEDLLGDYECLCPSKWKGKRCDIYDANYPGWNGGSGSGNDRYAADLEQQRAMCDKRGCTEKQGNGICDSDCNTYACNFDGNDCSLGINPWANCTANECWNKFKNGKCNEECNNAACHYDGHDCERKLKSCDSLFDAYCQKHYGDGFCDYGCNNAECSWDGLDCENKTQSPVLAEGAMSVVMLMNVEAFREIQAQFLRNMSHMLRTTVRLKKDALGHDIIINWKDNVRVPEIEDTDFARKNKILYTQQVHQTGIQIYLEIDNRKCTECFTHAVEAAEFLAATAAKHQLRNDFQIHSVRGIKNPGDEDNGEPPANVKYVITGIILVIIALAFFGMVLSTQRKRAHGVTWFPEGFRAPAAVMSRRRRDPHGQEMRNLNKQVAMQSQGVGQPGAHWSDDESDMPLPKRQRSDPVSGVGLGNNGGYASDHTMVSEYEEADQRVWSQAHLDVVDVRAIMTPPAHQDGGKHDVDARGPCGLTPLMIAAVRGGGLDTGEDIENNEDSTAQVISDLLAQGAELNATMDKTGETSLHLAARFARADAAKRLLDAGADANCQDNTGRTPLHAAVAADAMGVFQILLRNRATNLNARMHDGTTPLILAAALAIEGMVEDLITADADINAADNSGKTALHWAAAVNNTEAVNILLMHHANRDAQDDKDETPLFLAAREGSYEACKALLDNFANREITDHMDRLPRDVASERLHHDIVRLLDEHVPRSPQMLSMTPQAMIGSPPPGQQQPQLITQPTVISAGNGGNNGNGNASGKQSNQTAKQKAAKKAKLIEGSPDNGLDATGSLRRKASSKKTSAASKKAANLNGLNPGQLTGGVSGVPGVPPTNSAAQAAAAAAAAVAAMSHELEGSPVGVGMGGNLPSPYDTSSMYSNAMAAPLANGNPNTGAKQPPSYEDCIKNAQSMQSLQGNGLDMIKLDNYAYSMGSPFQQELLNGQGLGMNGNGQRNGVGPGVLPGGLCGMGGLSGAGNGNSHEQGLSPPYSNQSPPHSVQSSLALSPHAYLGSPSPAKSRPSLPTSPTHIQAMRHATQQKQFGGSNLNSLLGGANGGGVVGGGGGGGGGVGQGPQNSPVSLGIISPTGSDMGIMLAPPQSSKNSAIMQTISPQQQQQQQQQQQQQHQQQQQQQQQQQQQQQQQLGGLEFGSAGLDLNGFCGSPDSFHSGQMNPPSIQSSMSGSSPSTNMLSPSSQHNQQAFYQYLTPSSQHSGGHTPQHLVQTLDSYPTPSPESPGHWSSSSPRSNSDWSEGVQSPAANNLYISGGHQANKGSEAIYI
Notch D505A (N^D505A) (P07207, form named): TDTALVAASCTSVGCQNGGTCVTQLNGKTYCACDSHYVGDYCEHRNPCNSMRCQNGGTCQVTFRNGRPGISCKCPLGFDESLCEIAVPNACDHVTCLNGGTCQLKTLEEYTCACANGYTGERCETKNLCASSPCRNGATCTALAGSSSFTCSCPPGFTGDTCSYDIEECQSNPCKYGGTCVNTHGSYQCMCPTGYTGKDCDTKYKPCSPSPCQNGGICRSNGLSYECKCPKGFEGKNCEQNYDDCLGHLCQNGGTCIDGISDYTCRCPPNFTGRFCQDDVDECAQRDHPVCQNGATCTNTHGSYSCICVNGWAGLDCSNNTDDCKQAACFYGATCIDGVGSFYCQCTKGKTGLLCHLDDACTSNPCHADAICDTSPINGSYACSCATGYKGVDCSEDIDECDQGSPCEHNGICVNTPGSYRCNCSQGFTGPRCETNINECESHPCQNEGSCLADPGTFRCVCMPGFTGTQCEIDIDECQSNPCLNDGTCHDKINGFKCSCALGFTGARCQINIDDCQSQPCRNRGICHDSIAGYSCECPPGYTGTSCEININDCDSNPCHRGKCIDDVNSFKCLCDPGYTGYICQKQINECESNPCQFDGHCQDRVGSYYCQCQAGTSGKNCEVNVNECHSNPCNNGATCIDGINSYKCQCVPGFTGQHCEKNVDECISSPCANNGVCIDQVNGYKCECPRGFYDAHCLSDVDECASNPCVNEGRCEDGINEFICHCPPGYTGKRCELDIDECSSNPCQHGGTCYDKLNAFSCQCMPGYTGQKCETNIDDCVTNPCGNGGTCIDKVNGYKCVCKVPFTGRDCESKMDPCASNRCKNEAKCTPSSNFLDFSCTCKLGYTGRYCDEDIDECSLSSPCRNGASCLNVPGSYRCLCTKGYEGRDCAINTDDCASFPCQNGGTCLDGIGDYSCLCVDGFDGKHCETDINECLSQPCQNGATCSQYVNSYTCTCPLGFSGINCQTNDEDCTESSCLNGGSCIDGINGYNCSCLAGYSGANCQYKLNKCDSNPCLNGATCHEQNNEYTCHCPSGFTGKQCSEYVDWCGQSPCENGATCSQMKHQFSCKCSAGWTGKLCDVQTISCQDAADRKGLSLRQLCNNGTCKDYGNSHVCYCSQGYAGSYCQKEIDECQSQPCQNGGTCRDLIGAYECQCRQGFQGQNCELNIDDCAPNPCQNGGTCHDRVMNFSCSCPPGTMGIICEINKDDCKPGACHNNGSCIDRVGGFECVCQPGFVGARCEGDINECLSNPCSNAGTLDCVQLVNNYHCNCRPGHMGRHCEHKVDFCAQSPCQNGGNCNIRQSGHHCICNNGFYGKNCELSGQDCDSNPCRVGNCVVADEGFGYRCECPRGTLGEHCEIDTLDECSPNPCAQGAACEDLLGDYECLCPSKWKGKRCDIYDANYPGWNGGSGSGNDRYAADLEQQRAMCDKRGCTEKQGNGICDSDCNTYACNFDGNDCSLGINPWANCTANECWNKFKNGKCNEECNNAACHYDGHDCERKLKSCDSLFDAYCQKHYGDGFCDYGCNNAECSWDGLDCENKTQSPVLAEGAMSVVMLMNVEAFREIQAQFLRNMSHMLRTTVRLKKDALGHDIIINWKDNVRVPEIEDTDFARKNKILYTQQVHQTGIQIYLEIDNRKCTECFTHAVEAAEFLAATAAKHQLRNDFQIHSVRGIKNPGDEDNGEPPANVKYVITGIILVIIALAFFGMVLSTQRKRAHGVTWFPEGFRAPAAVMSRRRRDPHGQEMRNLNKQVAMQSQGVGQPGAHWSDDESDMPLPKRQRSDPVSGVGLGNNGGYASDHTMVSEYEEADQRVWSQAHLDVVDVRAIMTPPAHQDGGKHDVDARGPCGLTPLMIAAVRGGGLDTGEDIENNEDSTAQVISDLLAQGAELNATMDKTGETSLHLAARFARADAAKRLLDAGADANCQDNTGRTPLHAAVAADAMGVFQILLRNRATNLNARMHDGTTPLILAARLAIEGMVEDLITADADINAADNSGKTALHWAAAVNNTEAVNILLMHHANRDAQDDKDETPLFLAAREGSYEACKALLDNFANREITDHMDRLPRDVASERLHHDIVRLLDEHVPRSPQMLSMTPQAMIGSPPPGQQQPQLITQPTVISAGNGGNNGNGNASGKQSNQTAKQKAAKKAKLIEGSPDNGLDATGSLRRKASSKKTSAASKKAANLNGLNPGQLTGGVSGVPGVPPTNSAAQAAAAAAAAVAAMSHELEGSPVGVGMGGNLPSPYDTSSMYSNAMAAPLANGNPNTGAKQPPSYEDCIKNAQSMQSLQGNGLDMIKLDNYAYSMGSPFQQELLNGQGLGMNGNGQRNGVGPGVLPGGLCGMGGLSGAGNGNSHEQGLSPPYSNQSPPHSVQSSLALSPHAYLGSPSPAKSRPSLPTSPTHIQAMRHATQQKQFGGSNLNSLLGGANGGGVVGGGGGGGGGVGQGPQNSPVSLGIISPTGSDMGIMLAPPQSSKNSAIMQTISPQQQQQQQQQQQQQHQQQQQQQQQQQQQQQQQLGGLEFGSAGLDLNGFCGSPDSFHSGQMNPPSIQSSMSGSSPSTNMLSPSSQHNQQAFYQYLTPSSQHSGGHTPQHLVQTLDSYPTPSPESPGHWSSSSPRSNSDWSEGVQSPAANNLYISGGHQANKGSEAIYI

Target: Venus-Deltex (Venus-Dx) (Drosophila) (UniProt Q23985)
Assay: co-IP; S2 cells co-transfected with pMT-N constructs and pMT-Venus-Dx; lysate in 50 mM Tris-HCl pH 8.0, 150 mM NaCl, 1% Triton X-100, 1 mM CaCl2; Venus-Dx captured on GFP-TRAP agarose 1 hr at 4°C, washed 4 times; Western blot

| Substance | binding |
| --- | --- |
| Notch R2027A (N^R2027A) (from UniProt P07207 53-2703) (receptor) | no binding |
| Notch D505A (N^D505A) (from UniProt P07207 53-2703) (receptor) | binds |
